Read-outs that look alike come from different tables or passages of the source. Results are given in words; binding and its absence hold for the method and conditions named. A result given as binding can be weak or reduced; the word gives no strength. For some of these results: Where a sequence is shown, tags or fusion partners need not be part of it. For some of these results: Binding seen in cells or lysates may run through a third protein.
Assays:
[1] = target: T1, Lactococcus lactis Csm2 with N-terminal His6-tag (Lactococcus lactis) (UniProt L0CFW2); test: cryo-EM structure
T1 sequence: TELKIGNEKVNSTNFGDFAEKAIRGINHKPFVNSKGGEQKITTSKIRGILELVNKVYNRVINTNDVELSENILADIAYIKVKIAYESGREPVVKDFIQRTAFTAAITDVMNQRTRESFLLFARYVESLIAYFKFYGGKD

[2] = target: T1, Lactococcus lactis Csm2 with N-terminal His6-tag (Lactococcus lactis); test: cryo-EM structure; remark: listed apart in the source
[3] = target: T1, Lactococcus lactis Csm2 with N-terminal His6-tag (Lactococcus lactis); test: co-purification
[4] = target: T2, Lactococcus lactis Csm3 with N-terminal His6-tag (ΔCsm2-LlCsm) (Lactococcus lactis) (UniProt L0CEA3); test: co-purification
T2 sequence: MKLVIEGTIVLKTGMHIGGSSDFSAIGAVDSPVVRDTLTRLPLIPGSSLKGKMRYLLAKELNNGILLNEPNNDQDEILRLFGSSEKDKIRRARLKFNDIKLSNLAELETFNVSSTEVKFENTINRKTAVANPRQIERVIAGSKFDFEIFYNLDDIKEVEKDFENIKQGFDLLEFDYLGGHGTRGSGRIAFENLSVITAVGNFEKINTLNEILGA

[5] = target: Lactococcus lactis Csm1 Asp14Asn (Lactococcus lactis); test: cryo-EM structure
[6] = target: Lactococcus lactis Csm1 Asp14Asn (Lactococcus lactis); test: cryo-EM structure; remark: listed apart in the source
[7] = target: Lactococcus lactis Csm1 Asp14Asn (Lactococcus lactis); test: cryo-EM structure; remark: listed apart in the source

In the case of Lactococcus lactis Csm1 Asp14Asn, the binding [1] is reported as “binds” and the binding [2] is reported as “binds”.

For “Lactococcus lactis Csm1 (Cas10), wild type”, the binding [3] was “binds” and the binding [4] was “binds”.

B1: Lactococcus lactis Csm4 (protein, UniProt L0CFH1)
chain: MKIIKLYFESPVHFGEKRLSESKITFSADTLFSALMIEAVGLGKEDEFYQLASNNLVKFSDAFPFIDQYYYIPKPMFNLKLEKEDENPSKAFKKLLYVPIDSLEDYLSGGLDAYFERESFNLGKLALSEKVQQHDFKDSEPYNVGTFTFKENTGLYVLIEQTHPLLEELLENLQYSGIGGKRNSGYGKFKFEILEDSDIEDLFSAKGNRKILLSGALPKDAELEQALKNASYLLERRGGFVQSDTYATNLVKKQDLYVFKSGSTFENSFDGDIYQVGKKGNHPVYKYAKSFFLEVSV
B1 was tested, and the binding [5] was “binds”, the binding [6] was “binds” and the binding [7] was “binds”.

From publication doi:10.1101/2021.01.27.428455 (bioRxiv, 2021)
